Data source: PubChem BioAssay AID1671195 (Yale University, 2021)
The whole screen tested about 22,000 reagents; shown is a part drawn at random. About 1,510 of them (6.9%) were called active. 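Active includes knockdowns raising or lowering LDL uptake; positive z-scores mean more uptake, negative mean less.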

- Purpose: 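Genes whose knockdown alters LDL uptake in liver cancer cells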 (primary screen)
- Cell system: human Huh7 hepatoma cells
- Reagent: siRNA pool against human genes, 18 nM
- Duration: about 2 to 2.5 days of knockdown, then 8 h LDL uptake
- Conditions: DiI-labelled LDL at 30 µg/ml for 8 h, in lipoprotein-deficient serum medium
- Read-out: 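Fluorescent LDL signal imaged in cells, scaled to the plate median, robust z-score for each replicate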
- Reading the numbers: robust z-score: higher = more LDL uptake after knockdown
- Active means: 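a gene counts as active if at least two replicate z-scores exceed ±2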

How did the screen score CCR1?
robust z-score, replicate 1: 1.48; robust z-score, replicate 2: 1.33; robust z-score, replicate 3: 1.22; activity call: inactive

Which result is listed for UTP25?
robust z-score, replicate 1: -0.869; robust z-score, replicate 2: -0.281; robust z-score, replicate 3: -1.1; activity call: inactive

With MRPS23, how do the results read?
robust z-score, replicate 1: -1.67; robust z-score, replicate 2: 0.339; robust z-score, replicate 3: -0.137; activity call: inactive

With B4GALNT1, what was measured?
robust z-score, replicate 1: -1.52; robust z-score, replicate 2: -2.63; robust z-score, replicate 3: -0.702; activity call: inactive

Which result is listed for RBM3?
robust z-score, replicate 1: 0.0194; robust z-score, replicate 2: -0.428; robust z-score, replicate 3: -0.66; activity call: inactive

For RAPSN, what was measured?
robust z-score, replicate 1: -0.65; robust z-score, replicate 2: -1.14; robust z-score, replicate 3: -1.03; activity call: inactive

What did the screen give for OR2H2?
robust z-score, replicate 1: -0.0419; robust z-score, replicate 2: -1.32; robust z-score, replicate 3: 0.159; activity call: inactive

What is on record for LOC440151 (retired record)?
robust z-score, replicate 1: 0.74; robust z-score, replicate 2: 0.509; robust z-score, replicate 3: 0.234; activity call: inactive

What did the screen give for OPTN?
robust z-score, replicate 1: -0.293; robust z-score, replicate 2: -1.06; robust z-score, replicate 3: -1.07; activity call: inactive

What did the screen give for KIF21B?
robust z-score, replicate 1: 0.785; robust z-score, replicate 2: 0.958; robust z-score, replicate 3: 0.896; activity call: inactive

Which result is listed for LRRC30?
robust z-score, replicate 1: -0.336; robust z-score, replicate 2: -0.282; robust z-score, replicate 3: -0.0769; activity call: inactive

What did the screen give for LINC02694?
robust z-score, replicate 1: -0.743; robust z-score, replicate 2: 0.381; robust z-score, replicate 3: 2.17; activity call: inactive

For OR2B11, what does the deposit list?
robust z-score, replicate 1: -0.607; robust z-score, replicate 2: -0.33; robust z-score, replicate 3: -0.407; activity call: inactive

What did the screen give for FTL?
robust z-score, replicate 1: 1.96; robust z-score, replicate 2: 0.412; robust z-score, replicate 3: 1.08; activity call: inactive

With LOC342669 (retired record), what was measured?
robust z-score, replicate 1: -0.817; robust z-score, replicate 2: -0.806; robust z-score, replicate 3: -0.835; activity call: inactive

For PCMTD2, what does the deposit list?
robust z-score, replicate 1: -0.968; robust z-score, replicate 2: -0.91; robust z-score, replicate 3: -1.17; activity call: inactive

How did the screen score FZD4?
robust z-score, replicate 1: -0.529; robust z-score, replicate 2: -0.269; robust z-score, replicate 3: -0.438; activity call: inactive

What did the screen give for ADGRF2P?
robust z-score, replicate 1: -0.898; robust z-score, replicate 2: 0.214; robust z-score, replicate 3: -0.506; activity call: inactive

What did the screen give for LOC391813?
robust z-score, replicate 1: 1.08; robust z-score, replicate 2: -0.0218; robust z-score, replicate 3: -0.243; activity call: inactive

Laid out differently: results already given.
| Target gene | robust z-score, replicate 1 | robust z-score, replicate 2 | robust z-score, replicate 3 | activity call |
| --- | --- | --- | --- | --- |
| KIF21B | 0.785 | 0.958 | 0.896 | inactive |
| LRRC30 | -0.336 | -0.282 | -0.0769 | inactive |
| LINC02694 | -0.743 | 0.381 | 2.17 | inactive |
| OR2B11 | -0.607 | -0.33 | -0.407 | inactive |
| FTL | 1.96 | 0.412 | 1.08 | inactive |

Additional reagents follow:
For NCSTN, what does the deposit list?
robust z-score, replicate 1: -0.0635; robust z-score, replicate 2: 1.27; robust z-score, replicate 3: -0.362; activity call: inactive

What did the screen give for PPP2R3B?
robust z-score, replicate 1: 2.25; robust z-score, replicate 2: 2.43; robust z-score, replicate 3: 1.87; activity call: active

With SLC25A5P2, what does the deposit list?
robust z-score, replicate 1: -1.73; robust z-score, replicate 2: -1.7; robust z-score, replicate 3: -1.63; activity call: inactive

For IMPDH1P6, how do the results read?
robust z-score, replicate 1: -0.299; robust z-score, replicate 2: -0.106; robust z-score, replicate 3: 0.134; activity call: inactive

What is on record for FHOD3?
robust z-score, replicate 1: -0.00138; robust z-score, replicate 2: -0.14; robust z-score, replicate 3: -0.28; activity call: inactive

With LOC440322 (retired record), what does the deposit list?
robust z-score, replicate 1: -0.219; robust z-score, replicate 2: -0.0502; robust z-score, replicate 3: -0.336; activity call: inactive

With EAF2, what was measured?
robust z-score, replicate 1: -0.0337; robust z-score, replicate 2: -0.365; robust z-score, replicate 3: -0.295; activity call: inactive

With GLIS1, what does the deposit list?
robust z-score, replicate 1: 1.87; robust z-score, replicate 2: 2.19; robust z-score, replicate 3: 1.43; activity call: inactive

For ANXA9, what does the deposit list?
robust z-score, replicate 1: 1.02; robust z-score, replicate 2: -0.954; robust z-score, replicate 3: -0.115; activity call: inactive

Which result is listed for TRIM32?
robust z-score, replicate 1: 1.33; robust z-score, replicate 2: 1.8; robust z-score, replicate 3: 1.48; activity call: inactive

What did the screen give for CHIAP2?
robust z-score, replicate 1: 1.32; robust z-score, replicate 2: -0.231; robust z-score, replicate 3: 0.894; activity call: inactive
